From the supplement of paper PMC10849652 come the findings set out here.

Protein sequences, listed by entry. Tags and fused reporters are not part of them. Lines headed by an entry give the natural chain unless they say otherwise; changes in a name come on top.
UniProt O95453: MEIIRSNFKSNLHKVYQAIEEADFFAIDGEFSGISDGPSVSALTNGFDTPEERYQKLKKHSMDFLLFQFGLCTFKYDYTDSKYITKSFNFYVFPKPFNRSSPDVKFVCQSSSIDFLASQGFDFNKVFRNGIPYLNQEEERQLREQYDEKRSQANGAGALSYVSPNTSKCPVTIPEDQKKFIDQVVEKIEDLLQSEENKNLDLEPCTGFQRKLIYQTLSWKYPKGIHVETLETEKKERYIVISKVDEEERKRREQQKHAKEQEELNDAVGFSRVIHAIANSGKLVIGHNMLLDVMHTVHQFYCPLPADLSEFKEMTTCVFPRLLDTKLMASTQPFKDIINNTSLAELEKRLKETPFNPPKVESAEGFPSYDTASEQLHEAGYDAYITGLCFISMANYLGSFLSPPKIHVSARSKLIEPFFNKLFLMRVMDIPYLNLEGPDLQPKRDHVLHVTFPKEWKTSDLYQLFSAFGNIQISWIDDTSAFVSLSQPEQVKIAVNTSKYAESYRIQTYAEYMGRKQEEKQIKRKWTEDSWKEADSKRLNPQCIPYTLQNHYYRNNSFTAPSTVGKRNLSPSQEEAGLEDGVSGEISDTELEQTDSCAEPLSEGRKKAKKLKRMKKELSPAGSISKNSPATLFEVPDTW
UniProt Q9UKL6: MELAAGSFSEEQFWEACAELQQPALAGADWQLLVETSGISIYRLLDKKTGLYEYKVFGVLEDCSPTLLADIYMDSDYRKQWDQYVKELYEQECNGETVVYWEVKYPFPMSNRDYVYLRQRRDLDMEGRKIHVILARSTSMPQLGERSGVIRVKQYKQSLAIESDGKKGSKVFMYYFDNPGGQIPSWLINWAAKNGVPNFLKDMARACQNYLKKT
UniProt Q8WUM4: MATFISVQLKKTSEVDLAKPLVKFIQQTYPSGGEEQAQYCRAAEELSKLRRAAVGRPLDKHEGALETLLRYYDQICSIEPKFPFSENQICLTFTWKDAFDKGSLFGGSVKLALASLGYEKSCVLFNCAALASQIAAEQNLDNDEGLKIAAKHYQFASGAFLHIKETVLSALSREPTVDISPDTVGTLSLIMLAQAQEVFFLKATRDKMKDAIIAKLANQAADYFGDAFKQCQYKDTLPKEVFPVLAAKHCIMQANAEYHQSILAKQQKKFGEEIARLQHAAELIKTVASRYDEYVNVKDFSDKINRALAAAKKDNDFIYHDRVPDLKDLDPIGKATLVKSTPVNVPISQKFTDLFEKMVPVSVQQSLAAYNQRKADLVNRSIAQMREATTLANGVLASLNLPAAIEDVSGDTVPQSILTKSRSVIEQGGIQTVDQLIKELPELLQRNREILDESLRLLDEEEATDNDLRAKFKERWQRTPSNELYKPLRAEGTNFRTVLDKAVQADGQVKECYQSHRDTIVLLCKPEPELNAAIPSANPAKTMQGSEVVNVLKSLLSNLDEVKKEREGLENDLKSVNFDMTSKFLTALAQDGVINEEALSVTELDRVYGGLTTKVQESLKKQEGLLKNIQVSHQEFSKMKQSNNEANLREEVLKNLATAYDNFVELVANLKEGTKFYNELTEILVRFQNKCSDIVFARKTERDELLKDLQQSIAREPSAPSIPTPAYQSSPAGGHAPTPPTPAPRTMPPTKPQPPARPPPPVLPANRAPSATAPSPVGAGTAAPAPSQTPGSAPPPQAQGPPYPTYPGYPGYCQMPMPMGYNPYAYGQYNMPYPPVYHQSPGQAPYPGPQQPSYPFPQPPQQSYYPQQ
UniProt Q9NQP4, whole entry, looked up: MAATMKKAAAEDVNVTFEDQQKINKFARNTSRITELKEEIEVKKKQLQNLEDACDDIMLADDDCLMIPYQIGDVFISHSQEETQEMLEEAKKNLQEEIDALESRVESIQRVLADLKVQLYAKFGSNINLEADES
UniProt P13667: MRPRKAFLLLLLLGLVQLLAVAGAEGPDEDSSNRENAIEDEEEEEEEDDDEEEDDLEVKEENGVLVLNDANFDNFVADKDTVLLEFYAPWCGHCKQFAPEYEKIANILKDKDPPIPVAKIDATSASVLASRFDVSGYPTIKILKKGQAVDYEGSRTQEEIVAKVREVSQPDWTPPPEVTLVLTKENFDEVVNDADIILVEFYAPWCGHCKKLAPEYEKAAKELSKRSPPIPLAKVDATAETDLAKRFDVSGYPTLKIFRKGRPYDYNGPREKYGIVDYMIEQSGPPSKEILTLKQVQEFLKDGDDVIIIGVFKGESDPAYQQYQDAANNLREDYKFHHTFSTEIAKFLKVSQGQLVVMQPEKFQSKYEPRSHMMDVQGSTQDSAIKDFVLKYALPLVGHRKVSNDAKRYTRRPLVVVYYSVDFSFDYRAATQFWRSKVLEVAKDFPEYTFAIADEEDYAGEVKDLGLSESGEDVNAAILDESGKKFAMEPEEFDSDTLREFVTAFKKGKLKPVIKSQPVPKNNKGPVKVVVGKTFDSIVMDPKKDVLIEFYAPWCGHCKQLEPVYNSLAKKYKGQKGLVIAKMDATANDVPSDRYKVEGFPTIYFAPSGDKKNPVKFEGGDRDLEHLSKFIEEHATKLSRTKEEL
UniProt Q6L8Q7: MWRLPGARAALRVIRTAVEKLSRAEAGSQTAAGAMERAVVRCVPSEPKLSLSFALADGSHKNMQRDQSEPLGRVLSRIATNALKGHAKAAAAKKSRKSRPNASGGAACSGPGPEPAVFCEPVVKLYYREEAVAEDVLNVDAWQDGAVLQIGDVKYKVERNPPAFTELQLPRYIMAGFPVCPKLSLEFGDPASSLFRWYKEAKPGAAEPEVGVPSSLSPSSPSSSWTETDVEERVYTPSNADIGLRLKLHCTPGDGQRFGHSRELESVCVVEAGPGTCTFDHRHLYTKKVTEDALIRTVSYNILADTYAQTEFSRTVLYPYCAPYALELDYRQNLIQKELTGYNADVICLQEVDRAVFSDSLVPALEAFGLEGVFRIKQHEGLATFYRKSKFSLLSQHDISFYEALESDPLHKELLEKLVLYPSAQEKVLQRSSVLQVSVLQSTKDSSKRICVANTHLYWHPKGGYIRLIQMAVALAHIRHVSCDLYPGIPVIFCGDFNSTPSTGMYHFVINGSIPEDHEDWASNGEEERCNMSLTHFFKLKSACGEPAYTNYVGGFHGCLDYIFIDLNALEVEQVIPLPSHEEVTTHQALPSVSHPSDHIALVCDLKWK
UniProt Q99447: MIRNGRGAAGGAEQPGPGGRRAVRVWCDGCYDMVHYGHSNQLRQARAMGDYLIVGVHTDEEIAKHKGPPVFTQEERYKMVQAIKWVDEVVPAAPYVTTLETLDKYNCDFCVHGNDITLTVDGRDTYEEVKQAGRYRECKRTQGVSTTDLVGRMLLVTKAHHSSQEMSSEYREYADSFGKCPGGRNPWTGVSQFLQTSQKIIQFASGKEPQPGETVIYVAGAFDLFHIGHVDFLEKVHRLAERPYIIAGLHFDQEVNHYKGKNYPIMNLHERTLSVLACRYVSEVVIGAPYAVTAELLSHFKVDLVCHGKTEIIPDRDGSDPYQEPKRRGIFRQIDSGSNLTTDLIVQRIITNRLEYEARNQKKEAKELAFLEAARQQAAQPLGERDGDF
UniProt O00408, whole entry, looked up: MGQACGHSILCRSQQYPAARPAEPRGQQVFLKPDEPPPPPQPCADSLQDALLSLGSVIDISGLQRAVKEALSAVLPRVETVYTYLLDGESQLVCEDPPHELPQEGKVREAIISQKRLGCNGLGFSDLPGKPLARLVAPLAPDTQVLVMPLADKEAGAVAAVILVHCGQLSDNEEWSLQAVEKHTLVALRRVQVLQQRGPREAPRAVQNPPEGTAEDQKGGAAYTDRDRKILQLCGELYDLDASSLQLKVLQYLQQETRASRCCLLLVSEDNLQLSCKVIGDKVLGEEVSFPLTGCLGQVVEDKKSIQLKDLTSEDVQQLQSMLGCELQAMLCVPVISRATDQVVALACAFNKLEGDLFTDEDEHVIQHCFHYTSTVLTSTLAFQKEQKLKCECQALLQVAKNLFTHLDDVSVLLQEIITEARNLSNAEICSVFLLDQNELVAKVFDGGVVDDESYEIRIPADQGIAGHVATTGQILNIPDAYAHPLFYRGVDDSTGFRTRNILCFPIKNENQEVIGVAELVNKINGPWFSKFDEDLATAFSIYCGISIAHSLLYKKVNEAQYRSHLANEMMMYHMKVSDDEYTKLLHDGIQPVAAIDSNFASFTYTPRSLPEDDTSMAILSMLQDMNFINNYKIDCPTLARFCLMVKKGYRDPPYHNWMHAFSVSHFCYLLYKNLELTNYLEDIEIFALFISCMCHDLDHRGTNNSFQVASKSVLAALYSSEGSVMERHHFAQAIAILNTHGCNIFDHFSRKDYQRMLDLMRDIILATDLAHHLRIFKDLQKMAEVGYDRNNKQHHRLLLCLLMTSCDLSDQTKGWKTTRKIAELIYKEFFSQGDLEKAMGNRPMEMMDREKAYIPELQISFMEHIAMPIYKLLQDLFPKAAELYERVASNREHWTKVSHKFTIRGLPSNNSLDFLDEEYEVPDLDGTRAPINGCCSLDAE
UniProt O15212, whole entry, looked up: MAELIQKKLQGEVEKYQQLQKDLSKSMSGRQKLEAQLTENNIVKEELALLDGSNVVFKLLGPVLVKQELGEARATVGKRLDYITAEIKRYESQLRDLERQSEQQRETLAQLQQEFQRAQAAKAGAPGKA
UniProt Q9UHV9, whole entry, looked up: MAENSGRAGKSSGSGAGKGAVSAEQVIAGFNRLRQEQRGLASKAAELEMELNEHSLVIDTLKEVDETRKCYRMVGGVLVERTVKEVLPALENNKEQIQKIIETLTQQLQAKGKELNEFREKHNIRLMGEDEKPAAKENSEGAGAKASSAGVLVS
UniProt Q9NUG6, whole entry, looked up: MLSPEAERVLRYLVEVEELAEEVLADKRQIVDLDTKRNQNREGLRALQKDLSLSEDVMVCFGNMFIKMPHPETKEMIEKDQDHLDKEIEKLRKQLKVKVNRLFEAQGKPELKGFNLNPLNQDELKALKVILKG
UniProt P07737, whole entry, looked up: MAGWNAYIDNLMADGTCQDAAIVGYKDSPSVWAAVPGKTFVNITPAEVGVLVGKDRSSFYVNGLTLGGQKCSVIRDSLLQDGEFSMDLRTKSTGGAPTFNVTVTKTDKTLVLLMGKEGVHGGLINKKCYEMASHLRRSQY
UniProt Q9Y5B6: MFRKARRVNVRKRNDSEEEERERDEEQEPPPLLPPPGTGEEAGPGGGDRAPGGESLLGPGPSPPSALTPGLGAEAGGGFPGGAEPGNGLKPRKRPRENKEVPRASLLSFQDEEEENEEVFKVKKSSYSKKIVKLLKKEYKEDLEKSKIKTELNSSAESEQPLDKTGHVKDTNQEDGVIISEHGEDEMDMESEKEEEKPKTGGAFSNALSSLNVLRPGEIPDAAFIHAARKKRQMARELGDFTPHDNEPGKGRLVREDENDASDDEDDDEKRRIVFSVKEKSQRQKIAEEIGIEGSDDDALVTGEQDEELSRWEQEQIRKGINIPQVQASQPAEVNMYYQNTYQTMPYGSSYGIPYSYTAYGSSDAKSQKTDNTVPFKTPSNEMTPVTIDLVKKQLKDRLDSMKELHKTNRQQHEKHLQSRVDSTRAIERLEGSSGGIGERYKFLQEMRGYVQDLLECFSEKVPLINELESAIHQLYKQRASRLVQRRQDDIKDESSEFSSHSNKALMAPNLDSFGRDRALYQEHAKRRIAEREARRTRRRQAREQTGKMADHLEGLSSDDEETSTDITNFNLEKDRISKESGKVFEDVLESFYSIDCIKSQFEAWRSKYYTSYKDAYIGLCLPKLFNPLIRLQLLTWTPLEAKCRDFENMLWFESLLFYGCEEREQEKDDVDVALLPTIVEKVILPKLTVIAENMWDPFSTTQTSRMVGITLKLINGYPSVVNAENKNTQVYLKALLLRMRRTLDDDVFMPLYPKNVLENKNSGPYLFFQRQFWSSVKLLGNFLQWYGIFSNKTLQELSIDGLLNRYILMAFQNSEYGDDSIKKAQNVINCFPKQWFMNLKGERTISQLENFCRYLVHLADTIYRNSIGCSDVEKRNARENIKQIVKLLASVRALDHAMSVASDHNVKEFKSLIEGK
UniProt Q99471, whole entry, looked up: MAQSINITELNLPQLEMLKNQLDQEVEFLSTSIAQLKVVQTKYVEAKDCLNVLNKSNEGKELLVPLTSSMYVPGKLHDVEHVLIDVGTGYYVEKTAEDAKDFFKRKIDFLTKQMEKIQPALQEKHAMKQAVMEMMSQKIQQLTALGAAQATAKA
UniProt Q9BRX2, whole entry, looked up: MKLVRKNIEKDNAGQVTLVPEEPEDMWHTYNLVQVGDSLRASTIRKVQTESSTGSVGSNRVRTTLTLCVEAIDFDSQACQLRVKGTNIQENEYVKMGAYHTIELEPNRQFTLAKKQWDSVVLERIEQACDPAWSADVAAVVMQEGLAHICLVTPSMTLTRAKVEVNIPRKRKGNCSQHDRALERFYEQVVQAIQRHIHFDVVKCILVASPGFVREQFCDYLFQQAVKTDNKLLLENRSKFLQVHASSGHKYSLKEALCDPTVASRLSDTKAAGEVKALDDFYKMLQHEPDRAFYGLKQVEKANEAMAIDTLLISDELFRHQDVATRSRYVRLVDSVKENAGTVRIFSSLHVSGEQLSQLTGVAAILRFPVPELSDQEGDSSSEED
UniProt Q15121, whole entry, looked up: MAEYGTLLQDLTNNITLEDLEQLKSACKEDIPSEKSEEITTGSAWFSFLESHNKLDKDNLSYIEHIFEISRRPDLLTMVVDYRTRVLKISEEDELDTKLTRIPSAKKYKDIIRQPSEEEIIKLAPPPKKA

The other results are listed elsewhere or left out.

Compound in the first assay: COc1cc2nc(-c3cc(F)ccc3O)nc(N[C@@H]3CNC[C@H]3C(C)(C)O)c2cc1OC
Kind of assay: log2 fold change, soluble protein after heating vs DMSO (PISA); higher = thermal stabilisation; K562 lysate, 10 uM; active = over 0.2 and 3.5 SD of the protein, either way, in both replicates (recomputed). The procedure, abridged:
(§1)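 Quantification was by TMTpro 16plex LC-MS/MS with equalised channel sums, applied to the supernatant after 21,000xg for 90 min. Samples were crude K562 extract at 1 mg/mL protein in PBS pH 7.4 with 1 mM MgCl2, treated with 10 μM compound for 30 min, heated for 3 min across 48°C-58°C, pooled and brought to 0.5% NP-40 at 4°C. Values are log-two fold changes in thermal stability relative to solvent controls, from duplicates.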
On to PDCL3 (UniProt Q9H2J4), for which the log2 fold change is inactive: 0.014.
For the target PATL1 (UniProt Q86TB9), the log2 fold change was inactive: 0.054.
The same measure, in the same setting: the figure for PDIA3 (UniProt H7BZJ3) is inactive: -0.005; for PARN (UniProt O95453) it is inactive: -0.013; for PEX5 isoform 4 (UniProt P50542) it is inactive: 0.003.
Still for that read-out and setting: under PFKM isoform 3 (UniProt P08237) stands inactive: 0.01; under PCTP (UniProt Q9UKL6), inactive: 0.002.
The same measure, in the same setting: the figure for PCBP3 (UniProt P57721) is inactive: 0.015; for PDCD6IP (UniProt Q8WUM4) it is inactive: 0.013; for PDCL (UniProt Q13371) it is inactive: -0.001.
PFDN4 (UniProt Q9NQP4): the log2 fold change was inactive: 0.
The same measure, in the same setting: the figure for PCBP2 (UniProt H3BRU6) is inactive: 0.072; for PDCD6IP isoform 2 (UniProt Q8WUM4) it is inactive: 0.003; for PDIA4 (UniProt P13667) it is inactive: -0.001.
For the target PDE12 (UniProt Q6L8Q7), the log2 fold change is inactive: 0.029.
The same measure, in the same setting: the figure for PCYT2 isoform 3 (UniProt Q99447) is inactive: -0.002; for PDE2A (UniProt O00408) it is inactive: 0.048; for PCBP2 isoform 8 (UniProt Q15366) it is inactive: -0.085.
On the same count and under the same terms, the figure for PFDN6 (UniProt O15212) is inactive: 0.007.
Still for that read-out and setting: the figure for PFDN2 (UniProt Q9UHV9) is inactive: 0.007; for PDCD10 (UniProt Q9BUL8) it is inactive: 0.05.
In the case of PAXIP1 (UniProt Q6ZW49), the log2 fold change is inactive: 0.058.
For the target PDRG1 (UniProt Q9NUG6), the log2 fold change was inactive: 0.006.
As to PFN1 (UniProt P07737), the log2 fold change is inactive: -0.013.
Still for that read-out and setting: the figure for PDCD5 (UniProt O14737) is inactive: 0.008; for PAXBP1 (UniProt Q9Y5B6) it is inactive: -0.003; for PARP14 (UniProt Q460N5) it is inactive: 0.
On the same count and under the same terms, the figure for PCBD1 (UniProt P61457) is inactive: 0.024; for PFDN5 (UniProt Q99471) it is inactive: -0.004.
Consider PCBP2 isoform 3 (UniProt Q15366), for which the log2 fold change was inactive: -0.006.
Turning to PDCD4 (UniProt Q53EL6), the log2 fold change was inactive: 0.015.
Same read-out and setting: the figure for PELO (UniProt Q9BRX2) is inactive: 0.006; for PEA15 isoform 2 (UniProt Q15121) it is inactive: -0.025.

Compound in a further assay: COc1cc2ncnc(Nc3ccc(F)c(Cl)c3)c2cc1OCCCN1CCOCC1 [gefitinib]
The description is as above. The procedure, abridged: as §1
As for PDCL3 (UniProt Q9H2J4), the log2 fold change was inactive: -0.018.
As to PATL1 (UniProt Q86TB9), the log2 fold change was inactive: -0.002.
For the target PDIA3 (UniProt H7BZJ3), the log2 fold change was inactive: 0.02.
PARN (UniProt O95453): the log2 fold change was inactive: 0.015.
As for PEX5 isoform 4 (UniProt P50542), the log2 fold change is inactive: -0.008.
The same measure, in the same setting: the figure for PFKM isoform 3 (UniProt P08237) is inactive: 0.005; for PCTP (UniProt Q9UKL6) it is inactive: -0.046.
Turning to PCBP3 (UniProt P57721), the log2 fold change is inactive: -0.023.
In the case of PDCD6IP (UniProt Q8WUM4), the log2 fold change is inactive: -0.001.
With PDCL (UniProt Q13371), the log2 fold change was inactive: 0.027.
On the same count and under the same terms, under PFDN4 (UniProt Q9NQP4) stands inactive: 0.045.
Still for that read-out and setting: under PCBP2 (UniProt H3BRU6) stands inactive: -0.145; under PDCD6IP isoform 2 (UniProt Q8WUM4), inactive: -0.003.
As to PDIA4 (UniProt P13667), the log2 fold change was inactive: -0.011.
Same read-out and setting: the figure for PDE12 (UniProt Q6L8Q7) is inactive: 0.015.
Still for that read-out and setting: under PCYT2 isoform 3 (UniProt Q99447) stands inactive: 0.036; under PDE2A (UniProt O00408), inactive: -0.01; under PCBP2 isoform 8 (UniProt Q15366), inactive: -0.122.
For PFDN6 (UniProt O15212), the log2 fold change is inactive: -0.048.
On the same count and under the same terms, under PFDN2 (UniProt Q9UHV9) stands inactive: 0.012; under PDCD10 (UniProt Q9BUL8), inactive: -0.025; under PAXIP1 (UniProt Q6ZW49), inactive: 0.036.
Turning to PDRG1 (UniProt Q9NUG6), the log2 fold change was inactive: 0.05.
On the same count and under the same terms, under PFN1 (UniProt P07737) stands inactive: 0.004; under PDCD5 (UniProt O14737), inactive: 0.031.
The same measure, in the same setting: the figure for PAXBP1 (UniProt Q9Y5B6) is inactive: -0.038.
In the case of PARP14 (UniProt Q460N5), the log2 fold change was inactive: -0.014.
Same read-out and setting: under PCBD1 (UniProt P61457) stands inactive: 0.027.
On the same count and under the same terms, under PFDN5 (UniProt Q99471) stands inactive: -0.185.
On the same count and under the same terms, under PCBP2 isoform 3 (UniProt Q15366) stands inactive: -0.009; under PDCD4 (UniProt Q53EL6), inactive: -0.003.
For the target PELO (UniProt Q9BRX2), the log2 fold change was inactive: 0.006.
The same measure, in the same setting: the figure for PEA15 isoform 2 (UniProt Q15121) is inactive: -0.1.

Compound in a further assay: CS(=O)(=O)CCNCc1ccc(-c2ccc3ncnc(Nc4ccc(OCc5cccc(F)c5)c(Cl)c4)c3c2)o1 [lapatinib]
Described as above. In short, it runs like this:
as §1
With PDCL3 (UniProt Q9H2J4), the log2 fold change is inactive: -0.004.
As for PATL1 (UniProt Q86TB9), the log2 fold change was inactive: 0.058.
For the target PDIA3 (UniProt H7BZJ3), the log2 fold change was inactive: -0.007.
With PARN (UniProt O95453), the log2 fold change was inactive: -0.006.
Still for that read-out and setting: the figure for PEX5 isoform 4 (UniProt P50542) is inactive: -0.092.
The same measure, in the same setting: the figure for PFKM isoform 3 (UniProt P08237) is inactive: 0.004; for PCTP (UniProt Q9UKL6) it is inactive: -0.011; for PCBP3 (UniProt P57721) it is inactive: -0.031.
Consider PDCD6IP (UniProt Q8WUM4), for which the log2 fold change was inactive: -0.006.
Still for that read-out and setting: the figure for PDCL (UniProt Q13371) is inactive: 0.013; for PFDN4 (UniProt Q9NQP4) it is inactive: -0.004.
Still for that read-out and setting: under PCBP2 (UniProt H3BRU6) stands inactive: 0.116; under PDCD6IP isoform 2 (UniProt Q8WUM4), inactive: 0; under PDIA4 (UniProt P13667), inactive: -0.018.
Same read-out and setting: under PDE12 (UniProt Q6L8Q7) stands inactive: -0.009; under PCYT2 isoform 3 (UniProt Q99447), inactive: -0.025.
With PDE2A (UniProt O00408), the log2 fold change was inactive: 0.005.
On the same count and under the same terms, under PCBP2 isoform 8 (UniProt Q15366) stands inactive: 0.022; under PFDN6 (UniProt O15212), inactive: -0.021.
On the same count and under the same terms, the figure for PFDN2 (UniProt Q9UHV9) is inactive: -0.001; for PDCD10 (UniProt Q9BUL8) it is inactive: -0.016; for PAXIP1 (UniProt Q6ZW49) it is inactive: -0.009.
As to PDRG1 (UniProt Q9NUG6), the log2 fold change was inactive: 0.001.
The same measure, in the same setting: under PFN1 (UniProt P07737) stands inactive: 0.01.
On the same count and under the same terms, under PDCD5 (UniProt O14737) stands inactive: 0.009.
On the same count and under the same terms, under PAXBP1 (UniProt Q9Y5B6) stands inactive: 0.002; under PARP14 (UniProt Q460N5), inactive: -0.018.
PCBD1 (UniProt P61457): the log2 fold change was inactive: -0.009.
PFDN5 (UniProt Q99471): the log2 fold change was inactive: 0.04.
Same read-out and setting: under PCBP2 isoform 3 (UniProt Q15366) stands inactive: -0.013; under PDCD4 (UniProt Q53EL6), inactive: -0.026.
Still for that read-out and setting: under PELO (UniProt Q9BRX2) stands inactive: 0.036.
For PEA15 isoform 2 (UniProt Q15121), the log2 fold change is inactive: 0.046.
